Measurements from patent US4016259A (Research Corporation, priority 1975, dated 1977).

Legend:
[1] = general procedure: Boc solid-phase peptide synthesis; chloromethyl-resin; DCC; details: whole synthesis, scale 0.45 mmol, diacetate salt converted to sodium salt
[2] = general procedure: Boc solid-phase peptide synthesis; polystyrene divinyl benzene chloromethyl resin, 2.2 mmoles of chloride per gram; DCC; details: whole synthesis, based on Lys, scale 0.45 mmol, diacetate salt converted to sodium salt

## Thr-Pro-Arg-Lys
[1]
  crude mass: 176 mg
[2]
  crude yield: 78%
